Earlier results as cited in patent publication US20260207602A1, “EGFR INHIBITORS” (Blueprint Medicines Corporation, priority 2022, published 2026).
Some results were stated once for a whole list of compounds, not compound by compound.

System: EGFR M+ NSCLC patients
Conditions: EGFR M+ NSCLC patients treated first line (1L); cited from earlier work

For `C=CC(=O)Nc1cc(Nc2nccc(-c3cn(C)c4ccccc34)n2)c(OC)cc1N(C)CCN(C)C` [Osimertinib], the “objective response rate (ORR)” value is given as 60-85%.
